Assay results taken from PubChem BioAssay AID1347421 (Sanford-Burnham Center for Chemical Genomics, 2020).
Whole data set: some 1,500 compounds, median “activity” near 2, cut for the lowest 2% near -18. This is one part of the list. Calls of active or inactive are those of the source.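 The calls were made as follows: active = inhibition of at least 40% at 10 µM; inconclusive = no clear call, values can overlap the other calls; inactive = the rest.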

Amino acid sequences for entries named in this document (tags omitted). A change or cut given only in a name is not applied to a line headed by its entry.
UniProt O00391: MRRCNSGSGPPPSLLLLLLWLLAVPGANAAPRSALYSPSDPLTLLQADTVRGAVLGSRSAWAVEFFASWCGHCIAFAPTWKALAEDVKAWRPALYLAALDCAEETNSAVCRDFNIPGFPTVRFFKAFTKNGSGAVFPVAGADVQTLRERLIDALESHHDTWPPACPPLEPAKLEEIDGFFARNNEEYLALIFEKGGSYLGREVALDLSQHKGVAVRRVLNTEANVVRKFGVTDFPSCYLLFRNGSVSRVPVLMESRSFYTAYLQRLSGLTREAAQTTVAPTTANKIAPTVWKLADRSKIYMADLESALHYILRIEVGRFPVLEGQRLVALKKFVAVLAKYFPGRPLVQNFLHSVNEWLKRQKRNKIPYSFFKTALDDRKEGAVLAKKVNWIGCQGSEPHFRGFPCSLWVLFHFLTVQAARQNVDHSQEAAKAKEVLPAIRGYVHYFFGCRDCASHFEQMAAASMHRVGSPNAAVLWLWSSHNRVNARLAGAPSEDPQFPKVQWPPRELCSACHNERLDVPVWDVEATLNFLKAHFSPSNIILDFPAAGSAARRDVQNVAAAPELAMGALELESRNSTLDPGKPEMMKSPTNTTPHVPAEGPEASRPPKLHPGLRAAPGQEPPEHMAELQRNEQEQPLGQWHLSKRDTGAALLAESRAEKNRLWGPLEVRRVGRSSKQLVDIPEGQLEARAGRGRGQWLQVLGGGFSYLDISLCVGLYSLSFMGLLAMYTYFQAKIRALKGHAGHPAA

Molecular target: Sulfhydryl oxidase 1 (Homo sapiens) (UniProt O00391)
Assay: QSOX1 enzyme inhibitors, confirmation, biochemical, ROS-Glo luminescence, single concentration (AID 1347421);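 also: 0% = DMSO wells with enzyme and 100% = wells lacking QSOX1 enzyme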
Settings: recombinant hQSOX1, RNase A substrate, ROS-Glo H2O2 luminescence; at 10 µM

SMILES	activity
O=C1CCCN1CCCC(=O)N1CCOC(CCc2ccccc2)C1 (centres undefined)	2.8%
COc1ccc(Br)cc1C(=O)NC(=S)Nc1ncccc1O	3.2%
Cc1cccc(CCNC(=O)c2cn(Cc3ccc(F)cc3)nn2)n1	inactive: -1.9%
CC(C)c1ccc(NC2CCCN(C(=O)CCC3=NNC(=O)CC3)C2)cc1 (centres undefined)	4.8%
NCC1CCN(c2cnn(CCCOCc3ccccc3)c(=O)c2)CC1	7.4%
CN(C)S(=O)(=O)c1cccc(C(=O)NCc2ccccc2)c1	inactive: -2.1%
COC(=O)c1sc2nc3c(c(C(F)(F)F)c2c1N)CN(C(C)=O)CC3	0.6%
O=C1CCCN1CC1CCN(Cc2c(C(=O)N3CCCC3)nc3ccccn23)CC1	3%
O=C(NCCCn1cccn1)c1coc(CN2CCN(Cc3ccccc3)CC2)n1	8.8%
COCCN1C(=O)c2cccnc2C1=O	4.6%
CCN1CCN(CC(O)COc2cccc(CNCc3ccc(C)s3)c2)CC1 (centres undefined)	inactive: -7.7%
O=C(NC1CCCN(C2CCCCCC2)C1)c1cc[n+]([O-])cc1 (centres undefined)	2.5%
O=C(NCC1CCOCC1)c1ccc(OC2CCN(Cc3ccccn3)CC2)cc1	6.6%
Cc1ccccc1-c1ccccc1C(=O)N1CCC(CCC(=O)N2CCOCC2)CC1	inactive: -1.3%
CN(CCc1ccccn1)C(=O)c1cc(COc2ccc(F)cc2F)on1	4.8%
Fc1cccc(-c2n[nH]c3c2CN(Cc2ccsc2)CC3)c1	3.8%
COc1ccccc1N1CCN(C2CCCN(Cc3cccc(C(C)=O)c3)C2)CC1 (centres undefined)	0.4%
CN(C)CCN(CC1CCCN(Cc2ccccc2F)C1)C(=O)CCc1cnn(C)c1 (centres undefined)	5.8%
c1ccc(-c2noc3c2CN(Cc2ccco2)CC3)cc1	inactive: -1.8%
O=C(CN1CCCCCC1)Nc1ccccc1C(F)(F)F	inactive: -17.3%
C#CCN(Cc1ccco1)C(=O)c1cn(Cc2ccc(F)cc2)nn1	3%
Fc1cccc(C2(CNc3ccc4[nH]ncc4c3)CCOC2)c1 (centres undefined)	0.6%
COc1cccc(-c2noc3c2CN(Cc2csc(C(C)=O)c2)CC3)c1	8.2%
COCCN1CCC(CN(Cc2ccncc2)Cc2csc(C(C)=O)c2)CC1	inactive: -7.9%
COc1ccccc1N1CCN(C2CCCN(Cc3csc(C(C)=O)c3)C2)CC1 (centres undefined)	inactive: -2.8%
O=C(CCC1CCCN(C(=O)CCN2CCCCO2)C1)NCc1ccc(F)c(F)c1 (centres undefined)	4.7%
COc1ccc(CNCCc2scnc2C)cc1OCC(O)CN(C)C(C)C (centres undefined)	7.8%

As entered above.
activity, CN(CCc1ccccn1)C(=O)c1cc(COc2ccc(F)cc2F)on1 reads 4.8%
activity, COc1ccccc1N1CCN(C2CCCN(Cc3cccc(C(C)=O)c3)C2)CC1 (centres undefined) reads 0.4%
activity, COc1ccc(CNCCc2scnc2C)cc1OCC(O)CN(C)C(C)C (centres undefined) reads 7.8%
activity, O=C(NC1CCCN(C2CCCCCC2)C1)c1cc[n+]([O-])cc1 (centres undefined) reads 2.5%
activity, COc1cccc(-c2noc3c2CN(Cc2csc(C(C)=O)c2)CC3)c1 reads 8.2%

Following part

SMILES	activity
COCc1nnc(NC(=O)CCSc2ccccc2)s1	inactive: -9.1%
O=C(CCC1CCCN(c2cnccn2)C1)NCc1ccc(F)c(F)c1 (centres undefined)	9.3%
CCc1nc(CN2CCC(N3CCC(C(=O)NC(C)C)CC3)CC2)c(C)[nH]1	2%
CCS(=O)(=O)N(C)c1ccc(C(=O)O)cc1	inactive: -5.4%
COc1cccc2c1OCC(NCc1cc(F)ccc1-n1cccn1)C2 (centres undefined)	inactive: -1.9%
O=C(NCC1CCCN(C2CCCCC2)C1)c1ccc(F)cc1 (centres undefined)	5.3%
COc1ccc(NC2CCCN(C(=O)Cc3ccsc3)C2)cc1OC (centres undefined)	inactive: -3.5%
Cc1cccc(C(=O)Nc2ccc(N)cc2O)c1	2.6%
COc1ccc(-c2cnnc(N(C)CCC3CCOCC3)n2)cc1F	0.9%
CC1(C)CC(=O)C=C(C(=O)NCc2cccnc2-n2ccnc2)O1	9.5%
CN(Cc1nccs1)C(=O)C1CCC(=O)N(CCc2cccc(F)c2)C1 (centres undefined)	5.7%
COc1ccc(C(CC(=O)NC2CCC(O)CC2)c2ccccc2)cc1 (centres undefined)	inactive: -2.7%
Cc1ccc(C(N)=O)cc1S(=O)(=O)N1CCCC1	inactive: -9.5%
[C+]1=NC=CN1CCOc1ccc2c(c1)CCC2	inactive: -0.4%
CCC1CN(C(=O)c2ccc(NCc3cnn(C)c3C)nc2)CCN1C(C)C (centres undefined)	inactive: -1%
COc1ccc(CN2CCCC2)cc1OCC(O)CN(C)Cc1ccccc1 (centres undefined)	inactive: -1%
COC(=O)C1CCN(C(=O)c2ccc(OC3CCN(Cc4ccccn4)CC3)cc2)CC1	3%
CC(C)OCCCNC(=O)CC1C(=O)NCCN1Cc1ccc(F)c(F)c1 (centres undefined)	inactive: -2.4%
COCCC(=O)N(CCOC)CC1CCN(Cc2ccccc2F)CC1	5.2%
Fc1ccc(-c2noc3c2CN(Cc2nccs2)CC3)cc1F	2.4%
CCN1CCN(S(=O)(=O)c2cc(C)c(C)cc2Br)CC1	4.9%
Cc1ccc(-c2cnnc(NCc3nc(C)c4c(n3)CCCC4)n2)o1	2.3%
Fc1cccc(C2(CNCc3cccc(-n4cncn4)c3)CCOC2)c1 (centres undefined)	1.9%
Cc1cc(C)c(C(=O)N2CCCC(CNS(=O)(=O)Cc3ccccc3)C2)o1 (centres undefined)	16.1%
CCOc1ccc(Br)cc1C(=O)N1CCCC1	inactive: -16.8%
CSc1ccc(CNCc2cccnc2)cc1	0.3%
c1cc2c(cc1N1CCC(N3CCCC(N4CCCC4)C3)CC1)OCO2 (centres undefined)	1.5%
